Assay results published in paper PMC13163806.

Target: T1, Programmed cell death 4 (PDCD4) protein, endogenous (human (endogenous in U343)) (UniProt Q53EL6)
T1 sequence: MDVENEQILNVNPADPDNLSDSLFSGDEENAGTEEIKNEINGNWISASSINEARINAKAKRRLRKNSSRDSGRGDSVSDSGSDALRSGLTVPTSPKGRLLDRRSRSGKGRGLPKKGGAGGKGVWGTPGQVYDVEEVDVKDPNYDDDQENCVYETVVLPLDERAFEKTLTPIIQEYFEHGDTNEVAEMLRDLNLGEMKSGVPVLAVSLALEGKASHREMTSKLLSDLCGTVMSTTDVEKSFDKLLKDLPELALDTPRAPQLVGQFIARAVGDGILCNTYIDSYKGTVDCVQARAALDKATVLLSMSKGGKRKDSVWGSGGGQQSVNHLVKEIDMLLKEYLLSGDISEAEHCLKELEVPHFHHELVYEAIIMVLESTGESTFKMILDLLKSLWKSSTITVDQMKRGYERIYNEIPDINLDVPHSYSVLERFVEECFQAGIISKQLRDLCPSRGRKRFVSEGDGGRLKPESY
Assay: affinity purification with mass spectrometry; endogenous PDCD4 precipitated with PDCD4 antibody on protein G Dynabeads from U343 lysate (RIPA), without crosslinking, basal conditions; FBS-coated beads as control; TMT labelling, LC-MS/MS

Substance	binding
eIF4G, endogenous (human (endogenous in U343))	binds
poly(A)-binding protein (PABP), endogenous (human (endogenous in U343))	binds

Results are given in words; binding and its absence hold for the method and conditions named. In cells and extracts the contact can be indirect. A yes stands for co-enrichment or nearness to the bait. Other partners may have been found.
